Reference: article PMC7032568
No constants are given. Whether binding was seen depends on the method and setting. In cells and extracts the contact can be indirect. Some entries that bind do so weakly or less than the wild type. Sequences can lack the tags named with a protein.

Amino acid sequences for entries named in this document (tags omitted).
UniProt P28340: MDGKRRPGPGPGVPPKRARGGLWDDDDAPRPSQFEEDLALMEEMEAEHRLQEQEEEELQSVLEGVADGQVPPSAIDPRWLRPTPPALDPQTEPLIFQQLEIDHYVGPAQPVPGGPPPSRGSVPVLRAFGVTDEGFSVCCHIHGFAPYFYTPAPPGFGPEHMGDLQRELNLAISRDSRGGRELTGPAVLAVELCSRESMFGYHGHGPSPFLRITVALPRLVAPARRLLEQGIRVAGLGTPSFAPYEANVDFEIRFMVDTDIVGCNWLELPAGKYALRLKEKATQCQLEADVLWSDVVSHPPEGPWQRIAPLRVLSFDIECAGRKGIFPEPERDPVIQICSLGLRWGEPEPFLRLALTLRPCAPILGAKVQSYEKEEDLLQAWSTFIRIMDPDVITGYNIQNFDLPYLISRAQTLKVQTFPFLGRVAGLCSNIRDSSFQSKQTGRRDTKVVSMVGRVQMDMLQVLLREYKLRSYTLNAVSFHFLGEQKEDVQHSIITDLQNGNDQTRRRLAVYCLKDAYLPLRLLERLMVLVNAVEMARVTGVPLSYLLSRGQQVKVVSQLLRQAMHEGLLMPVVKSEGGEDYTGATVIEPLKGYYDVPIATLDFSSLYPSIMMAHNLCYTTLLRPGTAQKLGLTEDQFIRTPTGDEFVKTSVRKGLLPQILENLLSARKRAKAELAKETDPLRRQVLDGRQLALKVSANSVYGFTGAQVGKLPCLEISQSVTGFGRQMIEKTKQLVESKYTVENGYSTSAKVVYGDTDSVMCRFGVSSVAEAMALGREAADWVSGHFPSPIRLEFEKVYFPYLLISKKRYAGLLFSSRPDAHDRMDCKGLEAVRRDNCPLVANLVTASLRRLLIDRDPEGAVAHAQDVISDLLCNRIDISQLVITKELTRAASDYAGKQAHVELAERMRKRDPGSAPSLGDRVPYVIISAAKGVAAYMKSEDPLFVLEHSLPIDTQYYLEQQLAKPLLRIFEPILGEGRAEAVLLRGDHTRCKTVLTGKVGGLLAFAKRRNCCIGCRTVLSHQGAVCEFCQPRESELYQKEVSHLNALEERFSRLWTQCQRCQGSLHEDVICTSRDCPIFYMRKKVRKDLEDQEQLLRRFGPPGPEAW

Tests used:
Assay in all cases: co-IP; Flag-tagged protein captured overnight on ANTI-FLAG M2 Affinity beads from 293T whole cell lysates (150 mM NaCl, 0.1% NP-40, treated with benzonase); beads washed three times with lysis buffer; Western blot
[1] = molecular target: T1, Flag-tagged DDX11 C350S (human) (UniProt Q96FC9)
T1 sequence: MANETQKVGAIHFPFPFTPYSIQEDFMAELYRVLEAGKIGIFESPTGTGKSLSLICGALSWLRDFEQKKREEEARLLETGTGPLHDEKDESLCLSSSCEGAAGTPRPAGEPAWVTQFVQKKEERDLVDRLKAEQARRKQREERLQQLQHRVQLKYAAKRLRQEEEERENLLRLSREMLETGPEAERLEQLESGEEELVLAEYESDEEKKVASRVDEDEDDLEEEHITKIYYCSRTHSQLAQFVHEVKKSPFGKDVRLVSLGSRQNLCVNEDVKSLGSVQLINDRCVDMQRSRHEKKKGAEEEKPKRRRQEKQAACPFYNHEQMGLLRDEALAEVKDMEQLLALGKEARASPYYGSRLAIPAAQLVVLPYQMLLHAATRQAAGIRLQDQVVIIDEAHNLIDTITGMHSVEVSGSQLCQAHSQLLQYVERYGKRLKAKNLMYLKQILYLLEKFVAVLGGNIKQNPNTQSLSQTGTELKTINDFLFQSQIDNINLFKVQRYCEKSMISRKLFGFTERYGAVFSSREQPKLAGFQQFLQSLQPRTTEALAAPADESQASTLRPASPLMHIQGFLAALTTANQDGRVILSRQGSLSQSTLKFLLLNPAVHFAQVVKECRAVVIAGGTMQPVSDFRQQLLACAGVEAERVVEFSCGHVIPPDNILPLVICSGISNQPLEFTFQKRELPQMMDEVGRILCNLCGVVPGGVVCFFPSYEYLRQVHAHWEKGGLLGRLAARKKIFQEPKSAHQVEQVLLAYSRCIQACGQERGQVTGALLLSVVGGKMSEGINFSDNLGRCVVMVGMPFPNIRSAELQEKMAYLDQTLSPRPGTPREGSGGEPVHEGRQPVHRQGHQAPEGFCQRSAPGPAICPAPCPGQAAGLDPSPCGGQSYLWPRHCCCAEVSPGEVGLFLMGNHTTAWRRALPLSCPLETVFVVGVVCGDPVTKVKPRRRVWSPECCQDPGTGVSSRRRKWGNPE

[2] = molecular target: T2, Flag-tagged DDX11 (wild type) (human) (UniProt Q96FC9)
T2 sequence: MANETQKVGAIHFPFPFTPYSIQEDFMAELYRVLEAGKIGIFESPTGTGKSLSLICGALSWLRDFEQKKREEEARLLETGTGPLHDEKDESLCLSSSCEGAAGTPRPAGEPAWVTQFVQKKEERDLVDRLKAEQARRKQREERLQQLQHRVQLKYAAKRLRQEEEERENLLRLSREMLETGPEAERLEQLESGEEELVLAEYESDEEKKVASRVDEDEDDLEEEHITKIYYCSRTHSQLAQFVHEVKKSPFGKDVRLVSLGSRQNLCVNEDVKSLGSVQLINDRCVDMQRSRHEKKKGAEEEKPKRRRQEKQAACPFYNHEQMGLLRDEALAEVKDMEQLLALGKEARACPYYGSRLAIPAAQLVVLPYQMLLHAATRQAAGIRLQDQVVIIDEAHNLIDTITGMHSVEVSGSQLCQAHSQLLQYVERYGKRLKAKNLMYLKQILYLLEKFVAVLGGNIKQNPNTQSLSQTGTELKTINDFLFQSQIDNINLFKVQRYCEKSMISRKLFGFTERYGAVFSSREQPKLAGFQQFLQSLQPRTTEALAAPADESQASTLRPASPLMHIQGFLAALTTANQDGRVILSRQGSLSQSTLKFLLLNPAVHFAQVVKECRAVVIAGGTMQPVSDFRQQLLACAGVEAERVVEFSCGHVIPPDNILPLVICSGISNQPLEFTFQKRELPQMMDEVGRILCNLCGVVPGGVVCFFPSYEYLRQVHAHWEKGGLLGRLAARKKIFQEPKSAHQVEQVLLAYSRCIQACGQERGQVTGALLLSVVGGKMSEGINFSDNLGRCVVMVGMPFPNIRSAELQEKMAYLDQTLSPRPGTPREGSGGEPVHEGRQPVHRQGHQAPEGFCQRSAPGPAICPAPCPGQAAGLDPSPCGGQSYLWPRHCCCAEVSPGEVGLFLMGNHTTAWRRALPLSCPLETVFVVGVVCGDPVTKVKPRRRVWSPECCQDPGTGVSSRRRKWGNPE

[3] = molecular target: T3, Flag-tagged DDX11 C267S (human) (UniProt Q96FC9)
T3 sequence: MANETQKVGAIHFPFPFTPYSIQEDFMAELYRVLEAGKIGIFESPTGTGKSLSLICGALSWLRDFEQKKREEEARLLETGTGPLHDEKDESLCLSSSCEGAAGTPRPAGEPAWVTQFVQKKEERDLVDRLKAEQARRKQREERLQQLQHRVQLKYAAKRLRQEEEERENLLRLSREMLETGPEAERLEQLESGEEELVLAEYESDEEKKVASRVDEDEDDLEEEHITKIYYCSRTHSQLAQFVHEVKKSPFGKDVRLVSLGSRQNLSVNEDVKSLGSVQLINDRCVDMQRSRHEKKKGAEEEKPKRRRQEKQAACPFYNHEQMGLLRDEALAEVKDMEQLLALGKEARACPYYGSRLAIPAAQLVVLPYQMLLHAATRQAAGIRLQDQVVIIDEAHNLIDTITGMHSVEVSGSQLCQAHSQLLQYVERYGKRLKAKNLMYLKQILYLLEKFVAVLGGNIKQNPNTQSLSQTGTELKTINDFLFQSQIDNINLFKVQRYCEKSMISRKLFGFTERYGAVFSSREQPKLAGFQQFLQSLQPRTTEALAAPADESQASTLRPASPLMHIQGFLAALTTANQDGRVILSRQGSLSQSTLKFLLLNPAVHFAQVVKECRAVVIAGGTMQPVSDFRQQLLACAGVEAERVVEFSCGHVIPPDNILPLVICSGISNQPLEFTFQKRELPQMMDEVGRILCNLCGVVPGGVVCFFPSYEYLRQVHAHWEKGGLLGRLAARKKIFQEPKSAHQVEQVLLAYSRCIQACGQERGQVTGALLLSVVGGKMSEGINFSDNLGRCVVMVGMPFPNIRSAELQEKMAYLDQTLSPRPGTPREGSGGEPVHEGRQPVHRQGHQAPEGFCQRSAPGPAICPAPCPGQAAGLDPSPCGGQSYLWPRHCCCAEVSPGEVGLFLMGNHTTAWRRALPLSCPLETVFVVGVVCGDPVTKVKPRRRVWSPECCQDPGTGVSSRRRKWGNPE

Measured: binding

untagged POLD1 (from UniProt P28340 1-1107)
binds: [1] | [2] | [3]

B1: myc-tagged WDHD1 (protein, UniProt O75717 1-1129)
chain: MPATRKPMRYGHTEGHTEVCFDDSGSFIVTCGSDGDVRIWEDLDDDDPKFINVGEKAYSCALKSGKLVTAVSNNTIQVHTFPEGVPDGILTRFTTNANHVVFNGDGTKIAAGSSDFLVKIVDVMDSSQQKTFRGHDAPVLSLSFDPKDIFLASASCDGSVRVWQISDQTCAISWPLLQKCNDVINAKSICRLAWQPKSGKLLAIPVEKSVKLYRRESWSHQFDLSDNFISQTLNIVTWSPCGQYLAAGSINGLIIVWNVETKDCMERVKHEKGYAICGLAWHPTCGRISYTDAEGNLGLLENVCDPSGKTSSSKVSSRVEKDYNDLFDGDDMSNAGDFLNDNAVEIPSFSKGIINDDEDDEDLMMASGRPRQRSHILEDDENSVDISMLKTGSSLLKEEEEDGQEGSIHNLPLVTSQRPFYDGPMPTPRQKPFQSGSTPLHLTHRFMVWNSIGIIRCYNDEQDNAIDVEFHDTSIHHATHLSNTLNYTIADLSHEAILLACESTDELASKLHCLHFSSWDSSKEWIIDLPQNEDIEAICLGQGWAAAATSALLLRLFTIGGVQKEVFSLAGPVVSMAGHGEQLFIVYHRGTGFDGDQCLGVQLLELGKKKKQILHGDPLPLTRKSYLAWIGFSAEGTPCYVDSEGIVRMLNRGLGNTWTPICNTREHCKGKSDHYWVVGIHENPQQLRCIPCKGSRFPPTLPRPAVAILSFKLPYCQIATEKGQMEEQFWRSVIFHNHLDYLAKNGYEYEESTKNQATKEQQELLMKMLALSCKLEREFRCVELADLMTQNAVNLAIKYASRSRKLILAQKLSELAVEKAAELTATQVEEEEEEEDFRKKLNAGYSNTATEWSQPRFRNQVEEDAEDSGEADDEEKPEIHKPGQNSFSKSTNSSDVSAKSGAVTFSSQGRVNPFKVSASSKEPAMSMNSARSTNILDNMGKSSKKSTALSRTTNNEKSPIIKPLIPKPKPKQASAASYFQKRNSQTNKTEEVKEENLKNVLSETPAICPPQNTENQRPKTGFQMWLEENRSNILSDNPDFSDEADIIKEGMIRFRVLSTEERKVWANKAKGETASEGTEAKKRKRVVDESDETENQEEKAKENLNLSKKQKPLDFSTNQKLSAFAFKQE
binds: [1] | [2] | [3]
